# From the supplement of paper PMC8728848
# This is one part of the list.
# B1: Flo1 (Saccharomyces cerevisiae), P32768 (protein)
# chain: SGATEACLPAGQRKSGMNINFYQYSLKDSSTYSNAAYMAYGYASKTKLGSVGGQTDISIDYNIPCVSSSGTFPCPQEDSYGNWGCKGMGACSNSQGIAYWSTDLFGFYTTPTNVTLEMTGYFLPPQTGSYTFKFATVDDSAILSVGGATAFNCCAQQQPPITSTNFTIDGIKPWGGSLPPNIEGTVYMYAGYYYPMKVVYSNAVSWGTLPISVTLPDGTTVSDDFEGYVYSFDDDLSQSNCTVPDPSNY
# Tests used:
# Test in all cases: glycan array binding signal (z-score within array); higher = stronger binding
# Details in all cases: glycan notation: IUPAC condensed, linker removed
# [1] = molecular target: GlcNAc(a1-4)Gal(b1-4)GlcNAc(b1-3)Gal(b1-4)[Fuc(a1-3)]GlcNAc(b1-3)Gal(b1-4)[Fuc(a1-3)]GlcNAc
# Method in brief: (§1)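 Negative Z-scores can be read as non-binding. The Z-score is calculated within each array and then averaged across arrays of one protein sequence at different concentrations or buffers and across linkers. Arrays, 3228 in all, were curated from the Consortium for Functional Glycomics database and kept only where the protein sequence was available.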
# [2] = molecular target: GlcNAc(a1-6)Gal(b1-4)GlcNAc
# Method in brief: as §1
# [3] = molecular target: GlcNAc(b1-2)Gal(b1-3)GalNAc
# Method in brief: as §1
# [4] = molecular target: GlcNAc(b1-2)Man(a1-3)[GlcNAc(b1-2)Man(a1-6)]Man(b1-4)GlcNAc(b1-4)GlcNAc
# Method in brief: as §1
# [5] = molecular target: GlcNAc(b1-2)Man(a1-3)[GlcNAc(b1-2)Man(a1-6)]Man(b1-4)GlcNAc(b1-4)[Fuc(a1-6)]GlcNAc
# Method in brief: as §1
# [6] = molecular target: GlcNAc(b1-2)Man(a1-3)[GlcNAc(b1-4)][GlcNAc(b1-2)Man(a1-6)]Man(b1-4)GlcNAc(b1-4)GlcNAc
# Method in brief: as §1
# [7] = molecular target: GlcNAc(b1-2)Man(a1-3)[GlcNAc(b1-4)][GlcNAc(b1-2)Man(a1-6)]Man(b1-4)GlcNAc(b1-4)[Fuc(a1-6)]GlcNAc
# Method in brief: as §1
# [8] = molecular target: GlcNAc(b1-2)[GlcNAc(b1-4)]Man(a1-3)[GlcNAc(b1-2)Man(a1-6)]Man(b1-4)GlcNAc(b1-4)GlcNAc
# Method in brief: as §1
# [9] = molecular target: GlcNAc(b1-2)[GlcNAc(b1-4)]Man(a1-3)[GlcNAc(b1-4)][GlcNAc(b1-2)Man(a1-6)]Man(b1-4)GlcNAc(b1-4)GlcNAc
# Method in brief: as §1
# [10] = molecular target: GlcNAc(b1-2)[GlcNAc(b1-4)]Man(a1-3)[GlcNAc(b1-4)][GlcNAc(b1-2)[GlcNAc(b1-6)]Man(a1-6)]Man(b1-4)GlcNAc(b1-4)GlcNAc
# Method in brief: as §1
# [11] = molecular target: GlcNAc(b1-2)[GlcNAc(b1-4)]Man(a1-3)[GlcNAc(b1-4)][GlcNAc(b1-2)[GlcNAc(b1-6)]Man(a1-6)]Man(b1-4)GlcNAc(b1-4)[Fuc(a1-6)]GlcNAc
# Method in brief: as §1
# [12] = molecular target: GlcNAc(b1-2)[GlcNAc(b1-6)]Man(a1-6)[GlcNAc(b1-2)Man(a1-3)]Man(b1-4)GlcNAc(b1-4)GlcNAc
# Method in brief: as §1
# [13] = molecular target: GlcNAc(b1-2)[GlcNAc(b1-6)]Man(a1-6)[GlcNAc(b1-2)Man(a1-3)]Man(b1-4)GlcNAc(b1-4)[Fuc(a1-6)]GlcNAc
# Method in brief: as §1
# [14] = molecular target: GlcNAc(b1-2)[GlcNAc(b1-6)]Man(a1-6)[GlcNAc(b1-2)Man(a1-3)][GlcNAc(b1-4)]Man(b1-4)GlcNAc(b1-4)GlcNAc
# Method in brief: as §1
# [15] = molecular target: GlcNAc(b1-2)[GlcNAc(b1-6)]Man(a1-6)[GlcNAc(b1-4)][GlcNAc(b1-2)Man(a1-3)]Man(b1-4)GlcNAc(b1-4)GlcNAc
# Method in brief: as §1
# GlcNAc(b1-3)Fuc = molecular target: GlcNAc(b1-3)Fuc
# Method in brief: as §1
# GlcNAc(b1-3)Gal = molecular target: GlcNAc(b1-3)Gal
# Method in brief: as §1
# [16] = molecular target: GlcNAc(b1-3)Gal(b1-3)GalNAc
# Method in brief: as §1
# GlcNAc(b1-3)Gal(b1-4)Glc = molecular target: GlcNAc(b1-3)Gal(b1-4)Glc
# Method in brief: as §1
# [17] = molecular target: GlcNAc(b1-3)Gal(b1-4)GlcNAc
# Method in brief: as §1
# [18] = molecular target: GlcNAc(b1-3)Gal(b1-4)GlcNAc(b1-2)Man(a1-3)[GlcNAc(b1-3)Gal(b1-4)GlcNAc(b1-2)Man(a1-6)]Man(b1-4)GlcNAc(b1-4)GlcNAc
# Method in brief: as §1
# [19] = molecular target: GlcNAc(b1-3)Gal(b1-4)GlcNAc(b1-2)Man(a1-3)[GlcNAc(b1-3)Gal(b1-4)GlcNAc(b1-2)Man(a1-6)]Man(b1-4)GlcNAc(b1-4)[Fuc(a1-6)]GlcNAc
# Method in brief: as §1
# [20] = molecular target: GlcNAc(b1-3)Gal(b1-4)GlcNAc(b1-2)[GlcNAc(b1-3)Gal(b1-4)GlcNAc(b1-6)]Man(a1-6)[GlcNAc(b1-3)Gal(b1-4)GlcNAc(b1-2)Man(a1-3)]Man(b1-4)GlcNAc(b1-4)GlcNAc
# Method in brief: as §1
# [21] = molecular target: GlcNAc(b1-3)Gal(b1-4)GlcNAc(b1-3)Gal(b1-4)GlcNAc
# Method in brief: as §1
# [22] = molecular target: GlcNAc(b1-3)Gal(b1-4)GlcNAc(b1-3)Gal(b1-4)GlcNAc(b1-2)Man(a1-3)[GlcNAc(b1-3)Gal(b1-4)GlcNAc(b1-3)Gal(b1-4)GlcNAc(b1-2)Man(a1-6)]Man(b1-4)GlcNAc(b1-4)GlcNAc
# Method in brief: as §1
# [23] = molecular target: GlcNAc(b1-3)Gal(b1-4)GlcNAc(b1-3)Gal(b1-4)GlcNAc(b1-2)Man(a1-3)[GlcNAc(b1-3)Gal(b1-4)GlcNAc(b1-3)Gal(b1-4)GlcNAc(b1-2)Man(a1-6)]Man(b1-4)GlcNAc(b1-4)[Fuc(a1-6)]GlcNAc
# Method in brief: as §1
# [24] = molecular target: GlcNAc(b1-3)Gal(b1-4)GlcNAc(b1-3)Gal(b1-4)GlcNAc(b1-2)[GlcNAc(b1-3)Gal(b1-4)GlcNAc(b1-3)Gal(b1-4)GlcNAc(b1-6)]Man(a1-6)[GlcNAc(b1-3)Gal(b1-4)GlcNAc(b1-3)Gal(b1-4)GlcNAc(b1-2)Man(a1-3)]Man(b1-4)GlcNAc(b1-4)[Fuc(a1-6)]GlcNAc
# Method in brief: as §1
# [25] = molecular target: GlcNAc(b1-3)Gal(b1-4)GlcNAc(b1-3)Gal(b1-4)GlcNAc(b1-3)Gal(b1-4)GlcNAc(b1-2)Man(a1-3)[GlcNAc(b1-3)Gal(b1-4)GlcNAc(b1-3)Gal(b1-4)GlcNAc(b1-3)Gal(b1-4)GlcNAc(b1-2)Man(a1-6)]Man(b1-4)GlcNAc(b1-4)GlcNAc
# Method in brief: as §1
# [26] = molecular target: GlcNAc(b1-3)Gal(b1-4)GlcNAc(b1-3)Gal(b1-4)GlcNAc(b1-3)Gal(b1-4)GlcNAc(b1-2)Man(a1-3)[GlcNAc(b1-3)Gal(b1-4)GlcNAc(b1-3)Gal(b1-4)GlcNAc(b1-3)Gal(b1-4)GlcNAc(b1-2)Man(a1-6)]Man(b1-4)GlcNAc(b1-4)[Fuc(a1-6)]GlcNAc
# Method in brief: as §1
# [27] = molecular target: GlcNAc(b1-3)Gal(b1-4)GlcNAc(b1-3)Gal(b1-4)GlcNAc(b1-3)Gal(b1-4)GlcNAc(b1-2)[GlcNAc(b1-3)Gal(b1-4)GlcNAc(b1-3)Gal(b1-4)GlcNAc(b1-3)Gal(b1-4)GlcNAc(b1-6)]Man(a1-6)[GlcNAc(b1-3)Gal(b1-4)GlcNAc(b1-3)Gal(b1-4)GlcNAc(b1-3)Gal(b1-4)GlcNAc(b1-2)Man(a1-3)]Man(b1-4)GlcNAc(b1-4)[Fuc(a1-6)]GlcNAc
# Method in brief: as §1
# [28] = molecular target: GlcNAc(b1-3)Gal(b1-4)GlcNAc(b1-3)Gal(b1-4)GlcNAc(b1-3)Gal(b1-4)GlcNAc(b1-3)Gal(b1-4)GlcNAc(b1-2)Man(a1-3)[GlcNAc(b1-3)Gal(b1-4)GlcNAc(b1-3)Gal(b1-4)GlcNAc(b1-3)Gal(b1-4)GlcNAc(b1-3)Gal(b1-4)GlcNAc(b1-2)Man(a1-6)]Man(b1-4)GlcNAc(b1-4)GlcNAc
# Method in brief: as §1
# [29] = molecular target: GlcNAc(b1-3)Gal(b1-4)GlcNAc(b1-3)Gal(b1-4)GlcNAc(b1-3)Gal(b1-4)GlcNAc(b1-3)Gal(b1-4)GlcNAc(b1-2)Man(a1-3)[GlcNAc(b1-3)Gal(b1-4)GlcNAc(b1-3)Gal(b1-4)GlcNAc(b1-3)Gal(b1-4)GlcNAc(b1-3)Gal(b1-4)GlcNAc(b1-2)Man(a1-6)]Man(b1-4)GlcNAc(b1-4)[Fuc(a1-6)]GlcNAc
# Method in brief: as §1
# [30] = molecular target: GlcNAc(b1-3)Gal(b1-4)GlcNAc(b1-3)Gal(b1-4)GlcNAc(b1-3)Gal(b1-4)GlcNAc(b1-3)Gal(b1-4)GlcNAc(b1-2)[GlcNAc(b1-3)Gal(b1-4)GlcNAc(b1-3)Gal(b1-4)GlcNAc(b1-3)Gal(b1-4)GlcNAc(b1-3)Gal(b1-4)GlcNAc(b1-6)]Man(a1-6)[GlcNAc(b1-3)Gal(b1-4)GlcNAc(b1-3)Gal(b1-4)GlcNAc(b1-3)Gal(b1-4)GlcNAc(b1-3)Gal(b1-4)GlcNAc(b1-2)Man(a1-3)]Man(b1-4)GlcNAc(b1-4)[Fuc(a1-6)]GlcNAc
# Method in brief: as §1
# [31] = molecular target: GlcNAc(b1-3)Gal(b1-4)GlcNAc(b1-3)Gal(b1-4)GlcNAc(b1-3)GalNAc
# Method in brief: as §1
# [32] = molecular target: GlcNAc(b1-3)Gal(b1-4)GlcNAc(b1-3)GalNAc
# Method in brief: as §1
# [33] = molecular target: GlcNAc(b1-3)Gal(b1-4)GlcNAc(b1-3)[GlcNAc(b1-3)Gal(b1-4)GlcNAc(b1-3)]GalNAc
# Method in brief: as §1
# [34] = molecular target: GlcNAc(b1-3)Gal(b1-4)GlcNAc(b1-6)[Gal(b1-3)]GalNAc
# Method in brief: as §1
binder,measurement,setting,value
B1,glycan array binding signal (z-score),[1],2.23
same,glycan array binding signal (z-score),[2],-0.009
same,glycan array binding signal (z-score),[3],0.066
same,glycan array binding signal (z-score),[4],-0.005
same,glycan array binding signal (z-score),[5],0.814
same,glycan array binding signal (z-score),[6],-0.631
same,glycan array binding signal (z-score),[7],0.011
same,glycan array binding signal (z-score),[8],-0.459
same,glycan array binding signal (z-score),[9],-0.105
same,glycan array binding signal (z-score),[10],-0.728
same,glycan array binding signal (z-score),[11],0.239
same,glycan array binding signal (z-score),[12],-0.185
same,glycan array binding signal (z-score),[13],-0.369
same,glycan array binding signal (z-score),[14],-0.782
same,glycan array binding signal (z-score),[15],-0.416
same,glycan array binding signal (z-score),GlcNAc(b1-3)Fuc,-0.347
same,glycan array binding signal (z-score),GlcNAc(b1-3)Gal,-0.023
same,glycan array binding signal (z-score),[16],-0.113
same,glycan array binding signal (z-score),GlcNAc(b1-3)Gal(b1-4)Glc,-0.053
same,glycan array binding signal (z-score),[17],-0.182
same,glycan array binding signal (z-score),[18],1.32
same,glycan array binding signal (z-score),[19],-0.418
same,glycan array binding signal (z-score),[20],-0.046
same,glycan array binding signal (z-score),[21],-0.437
same,glycan array binding signal (z-score),[22],0.676
same,glycan array binding signal (z-score),[23],-0.311
same,glycan array binding signal (z-score),[24],0.066
same,glycan array binding signal (z-score),[25],-0.476
same,glycan array binding signal (z-score),[26],0.226
same,glycan array binding signal (z-score),[27],0.276
same,glycan array binding signal (z-score),[28],-0.583
same,glycan array binding signal (z-score),[29],-0.202
same,glycan array binding signal (z-score),[30],-0.008
same,glycan array binding signal (z-score),[31],0.208
same,glycan array binding signal (z-score),[32],-0.643
same,glycan array binding signal (z-score),[33],-0.466
same,glycan array binding signal (z-score),[34],-0.618
